# The median lay at about -60%. The list shows a part of the results. Potency and affinity values are given separately. Entries without a call are filed as inconclusive in the source.
# Amino acid sequences for entries named in this document (tags omitted).
# UniProt P08659, whole entry, looked up: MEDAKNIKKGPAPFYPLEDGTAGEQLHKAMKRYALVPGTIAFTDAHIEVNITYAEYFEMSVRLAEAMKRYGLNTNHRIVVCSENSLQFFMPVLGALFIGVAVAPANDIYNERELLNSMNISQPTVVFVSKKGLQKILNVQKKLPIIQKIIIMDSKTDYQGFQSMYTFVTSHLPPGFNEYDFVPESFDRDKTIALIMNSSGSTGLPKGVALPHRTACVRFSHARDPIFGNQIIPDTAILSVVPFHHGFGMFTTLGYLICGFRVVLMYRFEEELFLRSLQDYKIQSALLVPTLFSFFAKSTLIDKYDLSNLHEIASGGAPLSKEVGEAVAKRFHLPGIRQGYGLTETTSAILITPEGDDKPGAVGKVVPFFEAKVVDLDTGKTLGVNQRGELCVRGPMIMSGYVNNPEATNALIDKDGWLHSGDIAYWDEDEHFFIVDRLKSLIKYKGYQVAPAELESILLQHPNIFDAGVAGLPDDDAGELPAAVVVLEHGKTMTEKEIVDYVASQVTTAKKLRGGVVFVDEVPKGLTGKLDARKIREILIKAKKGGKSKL
# Biological target: Luciferin 4-monooxygenase (Photinus pyralis) (UniProt P08659)
# Assay: Photinus pyralis luciferase inhibitors, H4 neuroglioma cells, confirmatory dose response, luminescence (AID 1990)
# Conditions: at 12 µM (top of the series)
row,Compound,"activity change, negative = inhibition [%]"
1,CC/C=C/CC(=O)N[C@@H](c1ccccc1)[C@@H](O)C(=O)O[C@H]1C[C@@]2(O)[C@@H](OC(=O)c3ccccc3)C3[C@](C)(C(=O)[C@H](OC(C)=O)C(=C1C)C2(C)C)[C@@H](O)C[C@H]1OC[C@@]31OC(C)=O (stereo partly drawn),-32.6
2,Cc1cc(C)c(N=Cc2c(O)[nH]c(=O)[nH]c2=O)c(C)c1,-60.9
3,Cc1c2ccncc2c(C)c2c1[nH]c1ccccc12,-100

# From PubChem BioAssay AID1990 (Broad Institute, 2009)
